# Source: patent publication US11744815B1, “Pharmaceutical composition of dimethylguanidino valeric acid and plant flavonoids for treating chronic inflammatory diseases and cancer” (priority 2022, dated 2023)
# For at least one compound, name, drawing or mass did not settle the structure.
# Test system: mouse T cells
# Assay: Mouse T cell survival in RPMI with or without glucose, 4 days
# Format: cell-based
# Conditions: pyruvate 2 mM, glucose-containing medium, data not shown
# Method: In order to test the effects of glycolysis on the DMGV function to inhibit survival, mouse T cells were activated with or without DMGV in RPMI with or without glucose for 4 days and the survival rates were measured by flow cytometry. […] Oxidative phosphorylation uses pyruvate, an end product of glycolysis, and thus a diminished glycolysis can decrease oxidative phosphorylation.
smiles,measurement,value
CC(=O)C(=O)O [pyruvate],effect on DMGV-induced change of T cell survival,overcame DMGV-induced effect on T cell survival
